Results taken from patent US10208049B2, “Compounds and methods of treating ocular disorders” (Case Western Reserve University, priority 2009, dated 2019).
Some results were stated once for a whole list of compounds, not compound by compound. For part of these data: For at least one compound, name, drawing or mass did not settle the structure.

How the values were obtained:
[1] = test system: ABCA4−/−/RDH8−/− mice; experiment: HPLC analysis of 11-cis-retinal in eyes of ABCA4−/−/RDH8−/− mice; assay type: in vivo, mouse
From the text: We tested 21 drugs containing primary amino groups to determine if they react with the aldehyde group of all-trans-RAL to reduce its toxic levels in the eye after exposure to light and prevent its condensation into toxic conjugates. […] For these experiments, we used ABCA4^−/−/RDH8^−/− mice as models for Stargardt's disease and AMD. We employed analytical methods for determining the pharmacodynamics and pharmacokinetics of candidate drugs including: HPLC/MS/MS for analysis of retinoids and histological sections and OCT for assessment of retinal pathology. The relative amount of retinoids and their composition strongly correlates with the health status of the retina. […] Methodologies for performing the analysis on ABCA4^−/−/RDH8^−/− mice is described below.
Abca4^−/− mice also were generated by standard procedures (Ingenious Targeting, Inc., Stony Brook, N.Y.). […] Rdh8^−/−Abca4^−/− mice were established by crossbreeding Abca4^−/− mice with Rdh8^−/− mice. […] PCR products were cloned and sequenced to verify their identities.
All experimental procedures related to extraction, derivatization, and separation of retinoids from dissected mouse eyes were carried out under dim red light. Two whole mouse eyes were homogenized in 1 ml of 50 mM phosphate buffer, pH 7.0, containing 50% ethanol and 10 mM NH2OH. Ice-cold methanol (1 ml) was added to the homogenates 20 min after incubation at room temperature (RT), non-polar retinoids were extracted twice with 4 ml of hexane. The organic phase was collected, dried down in a SpeedVac and re-solubilized in 0.3 ml of hexane. […] Retinoids were detected at 325 nm (retinyl esters and retinols) and 350 nm (retinyl oximes) with a diode array detector. Those of interest were quantified based on the areas under their peaks calculated with the help of HP Chemstation A.03.03 software and compared with areas calculated based on known amounts of synthetic standards plotted as a standard curve.

[2] = test system: RPE cells; experiment: Viability of RPE cells treated with retinal; assay type: cell-based

Row | Structure (SMILES) | increase of 11-cis-retinal amount in comparison to untreated control animal [1] | improvement of viability of RPE cells treated with retinal compared to untreated cells [2]
1 | NS(=O)(=O)c1cc2c(cc1Cl)N=C[N-]S2(=O)=O.[Na+] [Sodium Diuril] | at least 30% | 
2 | N[C@@H]1CON=C1O [Seromycin] | at least 30% | 
3 | Nc1ccc(O)c(C(=O)O)c1 [Asacol] | at least 30% | 
4 | NCc1ccc(S(N)(=O)=O)cc1 [Sulfamylon] | at least 30% | 
5 | N[C@@H](CC(=O)N1CCn2c(nnc2C(F)(F)F)C1)Cc1cc(F)c(F)cc1F [Januvia] | at least 30% | 
6 | Nc1ccc(S(=O)(=O)c2ccc(N)cc2)cc1 [Dapsone] | at least 30% | 
7 | CC(N)C12CC3CC(CC(C3)C1)C2 (stereo not drawn) [Flumadine] | at least 30% | 
8 | CCCCNC(=O)OCc1cc(N)cc(N)c1 [(3,5-diaminophenyl)methyl N-butylcarbamate] |  | at least 15%
9 | COCCCC/C(=N\OCCN)c1ccc(C(F)(F)F)cc1 [Luvox] | at least 30% | 
10 | CCSC[C@H](N)C(=O)O [(2R)-2-amino-3-ethylsulfanyl-propanoic acid] |  | at least 15%
11 | Nc1ccc(NC(=O)c2ccc(C(=O)Nc3ccc(N)cc3Cl)cc2)c(Cl)c1 [N1,N4-bis(4-amino-2-chloro-phenyl)terephthalamide] |  | at least 15%
12 | CCCCNS(=O)(=O)c1cc(N)ccc1O [5-amino-N-butyl-2-hydroxy-benzenesulfonamide] |  | at least 15%
13 | NC(=O)CNC(=O)c1ccc(N)cc1 [4-amino-N-(2-amino-2-oxo-ethyl)benzamide] |  | at least 15%
14 | N[C@H](Cc1ccc(F)cc1)C(=O)N1C[C@H](OCc2ccccc2)C[C@@H]1CCn1cnnc1 [(2R)-2-amino-1-[(2S,4R)-4-benzyloxy-2-[2-(1,2,4-triazol-4-yl)ethyl]pyrrolidin-1-yl]-3-(4-fluorophenyl)propan-1-one] |  | at least 15%
15 | Cc1ccccc1-c1ccc(N2C(=O)N[C@@H](CCCCN)C2=O)cc1 [(5S)-5-(4-aminobutyl)-3-[4-(o-tolyl)phenyl]imidazolidine-2,4-dione] |  | at least 15%
16 | Nc1ccc2c3c(ccc2c1)CCCC3 [5,6,7,8-tetrahydrophenanthren-2-amine] |  | at least 15%
17 | Nc1cc(C(=O)NNC(=O)COc2ccc3ccccc3c2)cc([N+](=O)[O-])c1 [3-amino-N′-[2-(2-naphthyloxy)acetyl]-5-nitro-benzohydrazide] |  | at least 15%
18 | NCCCC[C@@H]1NC(=S)N(c2ccc(-c3cc4ccccc4s3)c3ccccc23)C1=O [(5S)-5-(4-aminobutyl)-3-[4-(benzothiophen-2-yl)-1-naphthyl]-2-thioxo-imidazolidin-4-one] |  | at least 15%
19 | COc1ccc(-c2ccc(/C=N/N3CC(=O)N(C(=O)CCN)C3=O)o2)cc1 [3-(3-aminopropanoyl)-1-[(E)-[5-(4-methoxyphenyl)-2-furyl]methyleneamino]imidazolidine-2,4-dione] |  | at least 15%
20 | Cc1cccc(N)c1C(=O)c1ccccc1 [(2-amino-6-methyl-phenyl)-phenyl-methanone] |  | at least 15%
21 | Nc1ccc(Oc2ccc(Br)cc2)cc1 [4-(4-bromophenoxy)aniline] |  | at least 15%
22 | Nc1ccc(CCC(=O)O)cc1 [3-(4-aminophenyl)propanoic acid] |  | at least 15%
23 | Cc1nc(-c2ccccc2N)c(C#N)c(C)c1S [2-(2-aminophenyl) sulfanyl-4,6-dimethyl-pyridine-3-carbonitrile] |  | at least 15%
24 | Nc1cccc(-c2ccc(-c3nc4ccccc4[nH]3)o2)c1 [3-[5-(1H-benzimidazol-2-yl)-2-furyl]aniline] |  | at least 15%
25 | N#CCCNCCNCCN [3-[2-(2-aminoethylamino)ethylamino]propanenitrile] |  | at least 15%
26 | Cc1ccccc1Oc1ccccc1N [2-(2-methylphenoxy)aniline] |  | at least 15%
27 | Cc1ncc([N+](=O)[O-])n1CCN [2-(2-methyl-5-nitro-imidazol-1-yl)ethanamine] |  | at least 15%
28 | Cc1ccc2nc(-c3ccc(N)cc3)sc2c1 [4-(6-methyl-1,3-benzothiazol-2-yl)aniline] |  | at least 15%
29 | Nc1ccc(Cl)cc1C(=O)NCc1ccncc1 [2-amino-5-chloro-N-(4-pyridylmethyl)benzamide] |  | at least 15%
30 | Cc1ccc(N)c(N(Cc2ccccc2)C(=O)c2cccc(N)c2)c1 [3-amino-N-(2-amino-5-methyl-phenyl)-N-benzyl-benzamide] |  | at least 15%
